# Source: the supplement of paper PMC12067093, “Discovery and optimisation of a covalent ligand for TRIM25 and its application to targeted protein ubiquitination” (Chemical Science, 2025)
# The list shows a part of the results.
# Compound: Cc1cc(ccc1-c1ccccc1)C(=O)N1CCCN(CC1)C(=O)CCl [compound 10]
# Assay: probe-labelled cysteine peptide fold change vs DMSO (competition) (log2 fold change); higher = less target engagement (more negative = stronger competition)
# Conditions: 50 µM; THP-1; incubation time: 4 h
# 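Also: competitive profiling in live THP-1 cells: cysteine peptides tagged with an iodoacetamide desthiobiotin (IA-DTB) probe, intensity after compound treatment relative to DMSO-treated cells.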
row,Target,probe-labelled cysteine peptide fold change
1,PCGF5_Q86SE9_42+53_TCIVQHFEDSNDCPR (UniProt Q86SE9),-0.597
2,PCID2_Q5JVF3_83_CQTVIVQSFLR (UniProt Q5JVF3),0.222
3,PATZ1_Q9HBE1_463_SHLACHEDK (UniProt Q9HBE1),0.0509
4,PDLIM1_O00151_283_HPECYVCTDCGTNLK (UniProt O00151),0.00239
5,PCCA_P05165_398_INGWAVECR (UniProt P05165),0.357
6,PEBP1_P30086_133_CDEPILSNR (UniProt P30086),0.154
7,PDHA1_P08559_261_VDGMDILCVR (UniProt P08559),0.13
8,PDLIM1_O00151_73_GCTDNLTLTVAR (UniProt O00151),0.0725
9,PCID2_Q5JVF3_152_VCASDTR (UniProt Q5JVF3),0.0189
10,PDCD11_Q14690_1754_ALECLPSK (UniProt Q14690),0.153
11,PAXBP1_Q9Y5B6_457_GYVQDLLECFSEK (UniProt Q9Y5B6),0.00768
12,PCCB_P05166_448_HLCGDTNYAWPTAEIAVMGAK (UniProt P05166),-0.152
13,PDLIM7_Q9NR12_370_MTWHVHCFTCAACK (UniProt Q9NR12),0.0798
14,PDHA1_P08559_261_GDFIPGLRVDGMDILCVR (UniProt P08559),-0.427
15,PDCD6IP_Q8WUM4_40_FIQQTYPSGGEEQAQYCR (UniProt Q8WUM4),0.186
16,PDE12_Q6L8Q7_268_ELESVCVVEAGPGTCTFDHR (UniProt Q6L8Q7),0.206
17,PDXDC1_Q6P996_491_LPVLCCTLQLR (UniProt Q6P996),-0.362

# 2 entries drawn at random from those above, as already listed:
row,Target,probe-labelled cysteine peptide fold change
6,PEBP1_P30086_133_CDEPILSNR (UniProt P30086),0.154
12,PCCB_P05166_448_HLCGDTNYAWPTAEIAVMGAK (UniProt P05166),-0.152
